42 sequences from publication PMC7819943, “Rice protein-binding microarrays: a tool to detect cis-acting elements near promoter regions in rice” can be followed below.

Amino acid sequences for entries named in this document (tags omitted).
UniProt Q0JBA9, entry or part of it: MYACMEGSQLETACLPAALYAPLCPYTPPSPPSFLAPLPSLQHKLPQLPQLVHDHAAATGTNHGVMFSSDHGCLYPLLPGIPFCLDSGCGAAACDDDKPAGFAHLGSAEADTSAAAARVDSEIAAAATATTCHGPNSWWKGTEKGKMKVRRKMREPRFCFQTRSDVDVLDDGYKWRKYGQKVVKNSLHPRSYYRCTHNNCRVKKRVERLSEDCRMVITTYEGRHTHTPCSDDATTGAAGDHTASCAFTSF

Some of the results follow.

The experiment addresses OsWRKY34 (Oryza sativa, UniProt Q0JBA9 1-250). Put plainly: protein-binding microarray (RPBM); PBS, 2% BSA, 51.3 ng/ul salmon testes DNA, 50 uM zinc acetate, 200 nM TF, 25 C, 1 h; high values mean tight binding. The note with it: protein: recombinant; tags: N-terminal polyhistidine and DsRed monomer fusion (pET32a); label: CyDye5-dUTP incorporated in the synthesized complementary strand; 3' TTTTT single-stranded linker to array surface; dsDNA, one strand shown. A digest of the protocol: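 Using Ni–NTA, transcription factors fused N-terminally to polyhistidine and DsRed were purified after expression in E. coli BL21-CodonPlus. These were incubated at 200 nM with a blocked, double-stranded custom Agilent array for 1 h at 25 °C in a buffer containing 50 µM zinc acetate, and the array was washed. The binding signal is per-feature fluorescence intensity (arbitrary units) on an Axon 4000B scanner.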
Turning to “AGGTGCGATGCGGAGGAAATGTGGGGTGGTAAAAAAGAAACGGAGTCACCTAGTGCAG”, the binding signal was 9420 fluorescence intensity (a.u.).
As for “TCTATCCCTCTCTTACTCTCTCTCGTGTTCCTCTTCACTACGGAGTCACCTAGTGCAG”, the binding signal is 8780 fluorescence intensity (a.u.).
As to “TGCATGTGGTTGGTCTATGTTTCTTTGAGCCGTGTTAGGACGGAGTCACCTAGTGCAG”, the binding signal is 9570 fluorescence intensity (a.u.).
Turning to “TATTTACTTTATTTCCTCCATTTATGTCGTTTTAGTTTTGCGGAGTCACCTAGTGCAG”, the binding signal was 9590 fluorescence intensity (a.u.).
As to “GGCGAGACGGGGAGAGGAGGGGAGGGTGACGGCGGCCGGACGGAGTCACCTAGTGCAG”, the binding signal was 8690 fluorescence intensity (a.u.).
Turning to “TCTTCACGCTGAAACGCGCCGTATCGGTCAACACTTCAGTCGGAGTCACCTAGTGCAG”, the binding signal is 9040 fluorescence intensity (a.u.).
Take “CATACTCCTAACAGTTATTAGTATTACGCTATATTTAACACGGAGTCACCTAGTGCAG”: the binding signal is 8280 fluorescence intensity (a.u.).
Regarding “TTCGTCGGGCTTCTCGCCATTGGCGTACGTACTCTTGCTGCGGAGTCACCTAGTGCAG”, the binding signal is 9900 fluorescence intensity (a.u.).
For the sequence “CAGCTATACCTCTATATTTCCTGTGTTTTCTATTTTTCTCCGGAGTCACCTAGTGCAG”, the binding signal was 11500 fluorescence intensity (a.u.).
With “TTTCCCTGATCCTTTTCCTAACCCAGTGGCAGGCATCTTTCGGAGTCACCTAGTGCAG”, the binding signal is 9990 fluorescence intensity (a.u.).
Take “CAACTACTTATCACACATTTACACGCATACACTTGGCCACCGGAGTCACCTAGTGCAG”: the binding signal was 9110 fluorescence intensity (a.u.).
As to “AGTTGTGCTGTGTAGAATTACTGGATGATTTGTTTTGGTTCGGAGTCACCTAGTGCAG”, the binding signal is 8800 fluorescence intensity (a.u.).
With “TCATGGGCGAATCACGAGTATCAACATTATGTTTCTATATCGGAGTCACCTAGTGCAG”, the binding signal was 8780 fluorescence intensity (a.u.).
Regarding “TTGTTTCTGAAATACTTTTTGTTCTTTCGTCGTGGATTGTCGGAGTCACCTAGTGCAG”, the binding signal is 10100 fluorescence intensity (a.u.).
For the sequence “AAGACATGGTTTCCTTTTTTTTCCTCATTTATTCACTTGCCGGAGTCACCTAGTGCAG”, the binding signal is 9630 fluorescence intensity (a.u.).
In the case of “GGAGCCATATAGGTACCATGCTAGCAAAAACCAGGGACAACGGAGTCACCTAGTGCAG”, the binding signal was 8080 fluorescence intensity (a.u.).
On to “ATGTAAATAGATGTAAGTTGCTTGTTTTTCCTTTTCTTTACGGAGTCACCTAGTGCAG”, for which the binding signal is 10600 fluorescence intensity (a.u.).
In the case of “CGTTTTTGCTCGGGTGGGCTGGGTTAGGGACTCATCTGCACGGAGTCACCTAGTGCAG”, the binding signal was 23800 fluorescence intensity (a.u.).
Take “ATGCATTGTTGCCATCCTCTTGCTTTACTTGCTCACAGTTCGGAGTCACCTAGTGCAG”: the binding signal was 10200 fluorescence intensity (a.u.).
Next, “ACTTTTGCCATTTTCCATTTACCATTCCAAATGGATCTAACGGAGTCACCTAGTGCAG”: 8540 fluorescence intensity (a.u.); “ATTCTCTTTTTCCGTGTTCAGCTGAATCGTCTCTGCTTTTCGGAGTCACCTAGTGCAG”: 9240 fluorescence intensity (a.u.).
Consider “GTTTCTCTTCGTCGACGTCTCCTGCAAGATCGTTTGGACCCGGAGTCACCTAGTGCAG”, for which the binding signal is 8960 fluorescence intensity (a.u.).
On to “AATGTTTGTTTGGAATTCGGATGGTGTGCATGGTTTGCTTCGGAGTCACCTAGTGCAG”, for which the binding signal was 8830 fluorescence intensity (a.u.).
On to “CACCAAAAACCTTTTTATACTGGATCAGATGTTTTTTCTTCGGAGTCACCTAGTGCAG”, for which the binding signal is 9610 fluorescence intensity (a.u.).
The result for “CTACCAAACCCACGCCGGCGCCGCATCGTCTTCGTCTCGTCGGAGTCACCTAGTGCAG” reads 9740 fluorescence intensity (a.u.).
Turning to “CGCCCACCGCCCGCGCCACCGCTCGCCACCTGGTCCGCCGCGGAGTCACCTAGTGCAG”, the binding signal is 8320 fluorescence intensity (a.u.).
The result for “CATTAGAAGTTAAAAAAAATTTCATGTGGCCTCCTTACACCGGAGTCACCTAGTGCAG” reads 12500 fluorescence intensity (a.u.); that for “CGGGGAGGGAGTCGGGCTGGAGGAGGACGCGGGTGTGGACCGGAGTCACCTAGTGCAG”, 8730 fluorescence intensity (a.u.).
Next, “CATGGTTCATGTTTTTGGCGTGTTTGTGTTATGGTAGTGCCGGAGTCACCTAGTGCAG”: 8910 fluorescence intensity (a.u.).
On to “CGTCTACCAGTTGATATGCCAATTTTTGTTGAGAAGTAATCGGAGTCACCTAGTGCAG”, for which the binding signal was 9200 fluorescence intensity (a.u.).
For the sequence “GGTGGGTGGCGCGGTGACCGGAGCCGGGGTGGCGGGTGTCCGGAGTCACCTAGTGCAG”, the binding signal is 10500 fluorescence intensity (a.u.).
Take “CCGCCGCTTCCTCGCCACCGCCGCTGCCGCCGCCACTTCCCGGAGTCACCTAGTGCAG”: the binding signal was 19400 fluorescence intensity (a.u.).
With “TAAAAATTTCATGACTGTTTCCATCTGTTTTTGTAAAAGTCGGAGTCACCTAGTGCAG”, the binding signal is 8530 fluorescence intensity (a.u.).
In the case of “CCGCACGCATCGCCCACCCTTCGCCGCTCGGGCTCATCAGCGGAGTCACCTAGTGCAG”, the binding signal is 8220 fluorescence intensity (a.u.).
Consider “CATCCACCGTTGCTCGATTTCTCTCCTCTCCCGCGCCGCCCGGAGTCACCTAGTGCAG”, for which the binding signal was 10200 fluorescence intensity (a.u.).
With “TAGATGCTTCTTTCCCTTGTCATTATGTTTTCTTCCCTGACGGAGTCACCTAGTGCAG”, the binding signal is 8020 fluorescence intensity (a.u.).
Next, “TCTCCTCTCTCTCTCTCTCTCATTTCTCTCTCGTTTTCTTCGGAGTCACCTAGTGCAG”: 11400 fluorescence intensity (a.u.); “TCACATCTCTTGTTTTCCACGCGCACGTTTTTTAAATTGCCGGAGTCACCTAGTGCAG”: 9140 fluorescence intensity (a.u.); “GTATCCTAATTTTCATAGTATCTCGATCCTACTATTCATTCGGAGTCACCTAGTGCAG”: 11300 fluorescence intensity (a.u.).
The result for “GGGTTGAGATGGGAGTAGAGGGGAGTGAGGTGGAAGAAGACGGAGTCACCTAGTGCAG” reads 8360 fluorescence intensity (a.u.); that for “TGTGGCTGTGCGTGTCTGATTCGTGTTCGCTTCTCCGACTCGGAGTCACCTAGTGCAG”, 9050 fluorescence intensity (a.u.); that for “ACTTTTTCATTTTTCGTTTTCAAACCGTTTAACAGTGTATCGGAGTCACCTAGTGCAG”, 10600 fluorescence intensity (a.u.).
